In general, IC50 refers to the concentration at which inhibition is half-maximal.

Common to all, as to experiment: Antiproliferative activity assay
What all share (type): cell-based

The test system of one assay is DU145 (AR-). Particulars: Homo sapiens, DU-145, 48 h, read-out: IC50 ± SEM, DU145 (AR−).
A further assay has as its system HT-29. The settings on record: Homo sapiens, HT-29, 48 h, read-out: IC50 ± SEM, HT-29.
The next assay has as its system HaCaT. Particulars: Homo sapiens, 48 h, read-out: IC50 ± SEM, HaCaT.
A further assay concerns T84 wt. The settings on record: Homo sapiens, 48 h, read-out: IC50 ± SEM, T84 wt.
The subject of a further assay is MCF7 (ER + ). Particulars: Homo sapiens, MCF7, 48 h, read-out: IC50 ± SEM, MCF7 (ER + ).
The test system of another assay is MDA-MB-231 (ER-). Particulars: Homo sapiens, MDA-MB-231, 48 h, read-out: IC50 ± SEM, MDA-MB-231 (ER−).
The test system of the next assay is PC3 (AR-). The settings on record: Homo sapiens, 48 h, read-out: IC50 ± SEM, PC3 (AR−).

As for `CC/C(=C(\c1ccccc1)c1ccc(OCCN(C)C)cc1)c1ccccc1` [Tamoxifen, tamoxifen], the IC50 in the assay on DU145 (AR-) was found to be 13.2 ± 0.2 µM; in the assay with HT-29 it was 6.4 ± 0.1 µM; in the assay with HaCaT, 13 ± 1 µM; in the assay on T84 wt, 12.4 ± 0.1 µM; with MCF7 (ER + ), 1100 ± 400 nM; with MDA-MB-231 (ER-), 4 ± 1 µM. The IC50 in the assay with PC3 (AR-) is 14 ± 5 µM.
